From publication PMC10994853

Biological target: Twin-strep-tagged SprA (Flavobacterium johnsoniae)
Experiment: affinity purification with mass spectrometry; Twin-strep–SprA complexes from ΔgldL backgrounds (alone or with ΔsprE, ΔskpA or sprA(Δnterm)); membranes solubilised in 1% LMNG, Strep-TactinXT, Superose 6 in 100 mM Tris-HCl pH 8.0, 150 mM NaCl, 1 mM EDTA, 0.01% LMNG, 4 °C; SDS–PAGE bands and whole samples identified by peptide fingerprinting

- binding: binds
B1: RemZ (Fjoh_0803) (protein, UniProt A5FLT3 1-1114)
chain: MDVQAWGGGGAGGGASGAVLDGRAAAGGGGGAYARSNITVAAGATLNASVAGTTTNALVSGAAVNGAAGGSSTILGFETSILALGGGGGGANNAGGTPAGGAGGSAASSVGNVSKLDGAAGGNGVTGAIGLLTVSGAGGTAGGGGGAGGAGVASVALGNGPGNAGTAPGGGGSGAMQSLLGGAQIGGSGAAGRVIITYTCPTYSITGISAANVCNSVGTTSVVTLTSSGGGLPIGPYVVTYNRSNPSGTGLTAIMNVTTPGTGTFTAAGLNVIGTSNITVTNLTSAACSSNISTNNVASLTVFAATVGGTLAGTATVCSGATSGTLTLSGQTGSIIKWESSVSPFTVWTTIPNTTNTYTSGALTETSQFRAVIQNGNCAVVNSSIATITVNPLPQGSLSANGPFCVTGSGQLTFTATAGTGPYTIVYKENGGADRTAANISSGVAFPTFTTPVTTTTVYTLVSVTGANTCSRSSGFTNNTATITVNSRIATPGFGTVTQPDCVTSTGSVVLTGLPAGSWTITQSGTASQTYNSSGTTYTISNLAVGNYTFTVQDAANCPSLATSTLTLIAPVVNIWNGTSWSKGSPPISTDVVRFSGNYSTTGNLSGCSLIVDSGFTVTVNSNHTLTISNAVTNNGGQLIFENNSSLLQTNNVTNVGNITYKRITPPVRRYDLTYWSSPITRTPPFTLYDLSPGTLADKYYSYDPVAGWVISFNGTQQMVPGRGYVVRAPQTNDLNTGANYLGAFVGVPNNGPISVSLGTAEAFQLLGNPYPSAIYADQFIANNSANLYGTLYFWTHNSLPSSSTPGGAQYNYDNNDYAVYNLSGSIIVGGMTGQGATTPGNQSAPLGYIAAGQGFFVVSKTAGNAVFTNSMRVAANNTQFYKTNKSAIERHRVWINLTNTQGAFKQLLIGYIEGATNFWDHNYDAITADANPHLDFYSINEGQNLVIQGRSLPFNESDVVPLGYRSAIAGEFSISLDHADGDLTNHAVYLEDKLTNTLHNLQTSNYTFNTAIGTFSDRFVIRYTTATLGTDDFENQTNSFYVSVKDKTIKLNSTEDVMREVSIFDISGKLLYNNKKVENTEFQVSNFQSGNQVLIVKVTLDNGNIITKKIVFN

These are yes or no findings as the source states them, for the method shown. In cells and extracts the contact can be indirect. These calls come from enrichment with a bait or labelling near it, and not all partners need be listed.
